{"source": "patent US6180625A", "about": "“Heterocyclic compounds regulating clotting” (Novo Nordisk A/S, priority 1998, dated 2001)", "test_system": "TF-induced coagulation in human plasma", "test": "fVIIa/TF-initiated clotting assay", "format": "biochemical", "conditions": "ratio between clotting time in presence and absence of test compound; final compound concentration 0,33 mM; citrated normal human plasma, Innovin; 330 µM", "note": "The name of at least one read-out is uncertain."}
{"compound": "O=c1oc(-c2c(F)cccc2F)nc2cc(F)c(F)cc12", "note": "[Example 121, 2-(2,6-Difluoro-phenyl)-6,7-difluoro-benzo[d][1,3]oxazin-4-one]", "values": [{"measurement": "Clot Ratio %", "value": 3.0, "unit": "%"}]}
